Data: patent publication US20240059785A1
Residue numbers refer to the chain shown, from its start. No constants are given. Whether binding was seen depends on the method and setting. Some binding calls cover weakened binding; strength is not graded here.

T1: cynomolgus monkey CD37 (Macaca fasicularis CD37) (cynomolgus monkey (Macaca fasicularis as printed))
T1 sequence: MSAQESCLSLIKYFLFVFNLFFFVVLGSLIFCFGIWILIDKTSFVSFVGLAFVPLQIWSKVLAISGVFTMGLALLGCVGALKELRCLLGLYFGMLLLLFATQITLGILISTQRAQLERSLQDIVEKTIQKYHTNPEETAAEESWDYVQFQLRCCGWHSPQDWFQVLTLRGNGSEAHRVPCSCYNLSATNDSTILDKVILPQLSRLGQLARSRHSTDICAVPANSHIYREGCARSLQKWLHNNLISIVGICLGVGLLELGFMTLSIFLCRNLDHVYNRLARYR

B1: anti-hCD37 Ab1.D11 (antibody, human IgG1, kappa, name in Kabat numbering, V domains shown)
VH: QVQLVQSGAEVKKPGASVKVSCKASGYTFTGYNMNWVRQNNGQRLEWMGNIDPYYGGTTYNRKFKGRVTITVDTSASTAYMELKSLRSEDTAVYYCARSVGPLDYWGQGTLVTVSS
VL: DIQMTQSPSSLSASVGDRVTITCRTSENVYSYLAWYQQKPGKAPKLLIYFAKTIAEGVPSRFSGSGSGTQFTLTISSLQPEDSASYYCQHHSDNPWTFGGGTELEIKR
B2: anti-hCD37 Ab1.H7 (antibody, human IgG1, kappa, name in Kabat numbering, V domains shown)
VH: B1 VH with K65Q, L103M
VL: B1 VL with I54L, N94D
B3: anti-hCD37 Ab1.F7 (antibody, human IgG1, kappa, name in Kabat numbering, V domains shown)
VH: B1 VH with K65Q, L103M
VL: B1 VL with I54L, S92T
B4: anti-hCD37 Ab1.G3 (antibody, human IgG1, kappa, name in Kabat numbering, V domains shown)
VH: B1 VH with M34L, L103M
VL: B1 VL with I54L, D93E
B5: anti-hCD37 Ab1.F3 (antibody, human IgG1, kappa, name in Kabat numbering, V domains shown)
VH: B1 VH with M34L, L103M
VL: B1 VL with I54L, S92T
B6: anti-hCD37 Ab1.G7 (antibody, human IgG1, kappa, name in Kabat numbering, V domains shown)
VH: B1 VH with K65Q, L103M
VL: B1 VL with I54L, D93E
B7: anti-hCD37 Ab1.D1 (antibody, human IgG1, kappa, name in Kabat numbering, V domains shown)
VH: B1 VH with M34V, L103M
VL: B1 VL

The binders below were run against T1, cynomolgus monkey CD37 (Macaca fasicularis CD37) (cynomolgus monkey (Macaca fasicularis as printed)) (assay: FACS on CD20+ gated cynomolgus monkey PBMCs).

binding, binds:
B1, B2

These binders were tested against T1, cynomolgus monkey CD37 (Macaca fasicularis CD37) (cynomolgus monkey (Macaca fasicularis as printed)) (assay: FACS on CD20+ gated cynomolgus monkey PBMCs, compared with anti-hCD37 Ab1).

binding, binds:
B3, B4, B5, B6, B7
